Changes are numbered by the printed parent chain. For part of these data: Negatives hold for the conditions tested. For part of these data: At least one verdict rests on a figure or table, not on a statement of the authors. Where a protein sequence is shown, tags need not be part of it. For part of these data: A weaker result is weaker than the reference pair of the same experiment. For part of these data: For at least one entry, the source does not settle the construct or the ends of the probe.

Results on four sequences are retold here after article PMC8329861, “Structure of the unique tetrameric STENOFOLIA homeodomain bound with target promoter DNA”.

Data set [1] deals with T1, His-MBP-STF85-190 WT (Medicago truncatula) (UniProt G0ZGT3).
T1 sequence (looked up): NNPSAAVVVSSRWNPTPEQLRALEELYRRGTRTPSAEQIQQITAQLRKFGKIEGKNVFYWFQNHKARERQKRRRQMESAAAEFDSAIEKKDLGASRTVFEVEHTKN
Put plainly: EMSA. To be noted: PAGE EMSA: 10 mM Tris-HCl pH 7.5, 100 mM KCl, 1 mM DTT, 2.5% glycerol, 5 ng/ul poly(dI-dC), 0.05% NP-40, 0.05 ug/ul protein, 5 fmol/ul DNA, room temperature 30 min; recombinant protein; residues 85-190; protein details: N-terminal 6xHis-MBP; label: 3' biotin.

Data set [2] deals with T2, His-MBP-STF85-190 R113Q + KRR/AAA R113Q,K155A,R156A,R157A (Medicago truncatula) (UniProt G0ZGT3).
T2 sequence (looked up): T1 sequence (looked up) with R29Q, K71A, R72A, R73A
As to the kind of experiment: EMSA. To be noted: greatly decreased; PAGE EMSA: 10 mM Tris-HCl pH 7.5, 100 mM KCl, 1 mM DTT, 2.5% glycerol, 5 ng/ul poly(dI-dC), 0.05% NP-40, 0.05 ug/ul protein, 5 fmol/ul DNA, room temperature 30 min; recombinant protein; residues 85-190; protein details: N-terminal 6xHis-MBP; label: 3' biotin. (In general: In EMSA bound probe runs differently from free probe, usually more slowly.)

Data set [3] concerns the target T3, His-MBP-STF85-190 N147I (Medicago truncatula) (UniProt G0ZGT3).
T3 sequence (looked up): T1 sequence (looked up) with N63I
Put plainly: EMSA. To be noted: text also cites Zhang 2014; PAGE EMSA: 10 mM Tris-HCl pH 7.5, 100 mM KCl, 1 mM DTT, 2.5% glycerol, 5 ng/ul poly(dI-dC), 0.05% NP-40, 0.05 ug/ul protein, 5 fmol/ul DNA, room temperature 30 min; recombinant protein; residues 85-190; protein details: N-terminal 6xHis-MBP; label: 3' biotin.

Data set [4] concerns the target T4, His-MBP-STF85-190 F142Y/Y143N (Medicago truncatula) (UniProt G0ZGT3).
T4 sequence (looked up): T1 sequence (looked up) with F58Y, Y59N
As to the kind of experiment: EMSA. To be noted: slightly reduced; PAGE EMSA: 10 mM Tris-HCl pH 7.5, 100 mM KCl, 1 mM DTT, 2.5% glycerol, 5 ng/ul poly(dI-dC), 0.05% NP-40, 0.05 ug/ul protein, 5 fmol/ul DNA, room temperature 30 min; recombinant protein; residues 85-190; protein details: N-terminal 6xHis-MBP; label: 3' biotin.

Data set [5] deals with T5, His-MBP-STF85-190 KRR/AAA K155A,R156A,R157A (Medicago truncatula) (UniProt G0ZGT3).
T5 sequence (looked up): T1 sequence (looked up) with K71A, R72A, R73A
Put plainly: EMSA. To be noted: reduced; PAGE EMSA: 10 mM Tris-HCl pH 7.5, 100 mM KCl, 1 mM DTT, 2.5% glycerol, 5 ng/ul poly(dI-dC), 0.05% NP-40, 0.05 ug/ul protein, 5 fmol/ul DNA, room temperature 30 min; recombinant protein; residues 85-190; protein details: N-terminal 6xHis-MBP; label: 3' biotin.

Data set [6] concerns the target T6, STF-HD F142Y/Y143N (Medicago truncatula) (UniProt G0ZGT3).
T6 sequence (looked up): T1 sequence (looked up) with F58Y, Y59N
Put plainly: fluorescence polarization. To be noted: significant decrease in affinity, value only in figure; FP: 50 mM Tris-HCl pH 7.4, 125 mM NaCl, 50 nM DNA; recombinant protein; residues 85-190; protein details: 6xHis-MBP removed by TEV; label: 5' 6-FAM. (Polarisation of emitted light reports the rotation of a fluorescent probe.)

In data set [7] the target is T7, STF-HD WT (Medicago truncatula) (UniProt G0ZGT3).
T7 sequence (looked up): T1 sequence (looked up)
Put plainly: fluorescence polarization. To be noted: value only in figure; FP: 50 mM Tris-HCl pH 7.4, 125 mM NaCl, 50 nM DNA; recombinant protein; residues 85-190; protein details: 6xHis-MBP removed by TEV; label: 5' 6-FAM.

Regarding “GCAAATTAATTATTTATTAAAG (double strand) [TAAT probe (TAAT motifs)]”, the binding result in data set [1] is “binds”.
As to “TGGATTTAATAATGAAGTGACA (double strand) [MtAS2 22 bp biotin]”, the binding result in data set [1] was “binds”; in data set [2], “binds more weakly”; in data set [3], “no binding”; in data set [4], “binds more weakly”; in data set [5], “binds more weakly”.
On to “GCAAATCTATGATCTATTCAAG (double strand) [TGA probe (TGA motifs only)]”, for which the binding result in data set [1] is recorded as “binds”.
For the sequence “GCAAATTAATGATTTATTCAAG (double strand) [MtLOB39 22 bp FAM]”, the binding result in data set [6] is listed as “binds more weakly”; in data set [7], “binds”.
